Results reported in paper doi:10.1101/2020.05.12.090571.
Results are given in words; binding and its absence hold for the method and conditions named. In cells and extracts the contact can be indirect. Some results given as binding are weak or reduced against the parent protein; the word gives no strength. Tags and fused reporters may be left off the sequences shown. Each block holds one binder with its values, some of them ahead of it.

Chains of the proteins cited; added tags and fusions are not shown. Residues count along the entry.
UniProt P30530, residues 26-894: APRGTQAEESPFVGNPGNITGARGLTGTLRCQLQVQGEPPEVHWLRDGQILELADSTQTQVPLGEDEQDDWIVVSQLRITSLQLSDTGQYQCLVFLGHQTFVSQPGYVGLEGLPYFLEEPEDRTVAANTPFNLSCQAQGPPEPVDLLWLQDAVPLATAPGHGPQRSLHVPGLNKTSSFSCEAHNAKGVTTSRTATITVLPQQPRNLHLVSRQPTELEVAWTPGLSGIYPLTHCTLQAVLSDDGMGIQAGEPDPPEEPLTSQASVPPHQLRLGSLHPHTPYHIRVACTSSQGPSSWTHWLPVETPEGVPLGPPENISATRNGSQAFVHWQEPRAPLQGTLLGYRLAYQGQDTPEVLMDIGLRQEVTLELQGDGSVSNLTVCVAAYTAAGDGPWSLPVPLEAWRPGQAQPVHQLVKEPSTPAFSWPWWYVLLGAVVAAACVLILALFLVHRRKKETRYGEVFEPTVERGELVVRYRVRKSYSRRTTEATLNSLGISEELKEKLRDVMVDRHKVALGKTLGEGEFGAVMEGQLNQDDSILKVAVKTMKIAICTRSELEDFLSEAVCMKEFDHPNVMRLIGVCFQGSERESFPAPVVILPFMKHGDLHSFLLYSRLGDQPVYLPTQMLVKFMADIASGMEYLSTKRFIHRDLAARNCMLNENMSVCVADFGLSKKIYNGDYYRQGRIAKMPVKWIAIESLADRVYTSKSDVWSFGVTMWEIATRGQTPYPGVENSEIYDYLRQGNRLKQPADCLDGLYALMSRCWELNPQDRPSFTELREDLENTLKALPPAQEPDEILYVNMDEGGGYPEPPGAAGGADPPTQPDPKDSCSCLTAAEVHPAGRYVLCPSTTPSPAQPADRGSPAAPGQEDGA

Legend:
Test in all cases: co-IP
K-Ras4A-GFP = K-Ras4A-GFP (UniProt P01116)
K-Ras4B-GFP = K-Ras4B-GFP (UniProt P01116)
[1] = biological target: AXL (human (endogenous in MCF10A)) (UniProt P30530)

binding (K-Ras4A-GFP): no binding
binding (K-Ras4B-GFP): binds
binding [1]: binds
B1: flotillin 1-HA (protein, UniProt O75955 1-427)
chain: MFFTCGPNEAMVVSGFCRSPPVMVAGGRVFVLPCIQQIQRISLNTLTLNVKSEKVYTRHGVPISVTGIAQVKIQGQNKEMLAAACQMFLGKTEAEIAHIALETLEGHQRAIMAHMTVEEIYKDRQKFSEQVFKVASSDLVNMGISVVSYTLKDIHDDQDYLHSLGKARTAQVQKDARIGEAEAKRDAGIREAKAKQEKVSAQYLSEIEMAKAQRDYELKKAAYDIEVNTRRAQADLAYQLQVAKTKQQIEEQRVQVQVVERAQQVAVQEQEIARREKELEARVRKPAEAERYKLERLAEAEKSQLIMQAEAEAASVRMRGEAEAFAIGARARAEAEQMAKKAEAFQLYQEAAQLDMLLEKLPQVAEEISGPLTSANKITLVSSGSGTMGAAKVTGEVLDILTRLPESVERLTGVSISQVNHKPLRTA

binding (K-Ras4A-GFP): no binding
binding (K-Ras4B-GFP): binds
B2: flotillin 1 (endogenous) (protein, UniProt O75955 1-427)
chain: B1 chain
